Measurements reported in the supplement of paper PMC10849652.
The other results are listed elsewhere or left out. Residues, ends and D or L forms follow the SMILES beside them. *: point of attachment. Cbz = O=C(OCc1ccccc1)*

Sequences of proteins named here, by UniProt entry; tags and fusion partners are left off. A change or cut given only in a name is not applied to a line headed by its entry.
UniProt P05161, whole entry, looked up: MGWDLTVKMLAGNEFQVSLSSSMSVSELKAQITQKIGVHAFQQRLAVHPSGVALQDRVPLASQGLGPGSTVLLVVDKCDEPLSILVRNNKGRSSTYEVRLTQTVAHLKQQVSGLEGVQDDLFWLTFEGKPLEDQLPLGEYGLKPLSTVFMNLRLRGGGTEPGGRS
UniProt O75054: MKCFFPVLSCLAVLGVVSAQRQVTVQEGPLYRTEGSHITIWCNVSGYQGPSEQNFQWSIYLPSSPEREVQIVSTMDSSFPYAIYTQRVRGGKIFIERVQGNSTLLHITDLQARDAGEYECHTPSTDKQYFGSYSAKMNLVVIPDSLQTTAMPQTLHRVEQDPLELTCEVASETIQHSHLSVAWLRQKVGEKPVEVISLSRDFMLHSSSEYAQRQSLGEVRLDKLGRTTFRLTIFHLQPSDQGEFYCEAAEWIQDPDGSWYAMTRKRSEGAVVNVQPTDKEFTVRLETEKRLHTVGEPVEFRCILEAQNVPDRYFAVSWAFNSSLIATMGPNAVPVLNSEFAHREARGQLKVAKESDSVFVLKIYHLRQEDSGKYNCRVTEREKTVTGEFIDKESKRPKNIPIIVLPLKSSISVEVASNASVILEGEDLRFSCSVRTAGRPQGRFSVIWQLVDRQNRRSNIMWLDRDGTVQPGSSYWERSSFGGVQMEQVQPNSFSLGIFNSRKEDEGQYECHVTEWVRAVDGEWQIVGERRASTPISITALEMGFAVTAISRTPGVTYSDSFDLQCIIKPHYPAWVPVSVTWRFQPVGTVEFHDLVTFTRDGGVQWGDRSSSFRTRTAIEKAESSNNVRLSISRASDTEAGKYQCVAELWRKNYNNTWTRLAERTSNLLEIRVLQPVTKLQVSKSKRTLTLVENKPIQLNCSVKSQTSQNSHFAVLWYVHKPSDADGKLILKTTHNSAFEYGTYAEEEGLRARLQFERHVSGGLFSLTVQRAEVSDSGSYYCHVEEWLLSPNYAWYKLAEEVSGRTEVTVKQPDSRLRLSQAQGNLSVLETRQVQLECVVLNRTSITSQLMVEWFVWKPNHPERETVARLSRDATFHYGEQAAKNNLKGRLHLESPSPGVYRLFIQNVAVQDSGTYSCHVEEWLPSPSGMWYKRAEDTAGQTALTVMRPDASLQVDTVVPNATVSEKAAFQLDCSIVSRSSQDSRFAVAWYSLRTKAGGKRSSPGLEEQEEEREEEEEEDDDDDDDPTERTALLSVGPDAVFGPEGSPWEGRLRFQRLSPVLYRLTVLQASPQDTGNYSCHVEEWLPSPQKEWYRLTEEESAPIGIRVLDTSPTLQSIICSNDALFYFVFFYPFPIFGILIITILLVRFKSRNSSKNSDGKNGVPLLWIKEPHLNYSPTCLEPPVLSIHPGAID
UniProt Q68E01, whole entry, looked up: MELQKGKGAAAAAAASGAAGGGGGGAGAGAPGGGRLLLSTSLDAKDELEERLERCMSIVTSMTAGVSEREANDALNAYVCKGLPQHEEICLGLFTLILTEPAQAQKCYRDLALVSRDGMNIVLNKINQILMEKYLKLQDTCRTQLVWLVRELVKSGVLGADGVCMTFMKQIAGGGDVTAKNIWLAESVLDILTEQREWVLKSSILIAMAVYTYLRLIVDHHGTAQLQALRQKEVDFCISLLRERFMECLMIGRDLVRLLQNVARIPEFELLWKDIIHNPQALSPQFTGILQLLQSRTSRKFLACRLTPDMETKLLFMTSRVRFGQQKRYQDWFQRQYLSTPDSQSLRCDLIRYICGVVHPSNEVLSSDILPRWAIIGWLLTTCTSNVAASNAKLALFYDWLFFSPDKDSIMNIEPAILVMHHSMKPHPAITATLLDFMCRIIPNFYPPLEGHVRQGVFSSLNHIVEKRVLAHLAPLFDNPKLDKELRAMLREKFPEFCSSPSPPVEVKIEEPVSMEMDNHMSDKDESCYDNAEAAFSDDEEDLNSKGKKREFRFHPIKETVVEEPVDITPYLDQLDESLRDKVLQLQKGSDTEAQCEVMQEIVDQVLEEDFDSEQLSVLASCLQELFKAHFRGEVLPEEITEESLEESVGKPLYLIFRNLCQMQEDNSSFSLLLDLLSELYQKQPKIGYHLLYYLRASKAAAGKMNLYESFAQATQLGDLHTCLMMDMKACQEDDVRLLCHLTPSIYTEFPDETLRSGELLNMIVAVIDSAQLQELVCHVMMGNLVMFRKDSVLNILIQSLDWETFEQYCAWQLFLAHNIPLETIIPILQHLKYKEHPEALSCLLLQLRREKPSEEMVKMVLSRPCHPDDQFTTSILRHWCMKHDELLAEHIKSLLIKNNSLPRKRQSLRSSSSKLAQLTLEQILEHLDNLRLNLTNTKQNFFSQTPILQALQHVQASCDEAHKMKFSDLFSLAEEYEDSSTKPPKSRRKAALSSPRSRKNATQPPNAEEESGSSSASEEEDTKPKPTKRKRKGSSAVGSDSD
UniProt Q9H1K1: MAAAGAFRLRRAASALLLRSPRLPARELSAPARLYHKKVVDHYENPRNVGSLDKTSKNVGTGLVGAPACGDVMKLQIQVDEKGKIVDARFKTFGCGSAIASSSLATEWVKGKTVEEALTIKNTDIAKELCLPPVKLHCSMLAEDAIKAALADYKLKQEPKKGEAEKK
UniProt P53990, whole entry, looked up: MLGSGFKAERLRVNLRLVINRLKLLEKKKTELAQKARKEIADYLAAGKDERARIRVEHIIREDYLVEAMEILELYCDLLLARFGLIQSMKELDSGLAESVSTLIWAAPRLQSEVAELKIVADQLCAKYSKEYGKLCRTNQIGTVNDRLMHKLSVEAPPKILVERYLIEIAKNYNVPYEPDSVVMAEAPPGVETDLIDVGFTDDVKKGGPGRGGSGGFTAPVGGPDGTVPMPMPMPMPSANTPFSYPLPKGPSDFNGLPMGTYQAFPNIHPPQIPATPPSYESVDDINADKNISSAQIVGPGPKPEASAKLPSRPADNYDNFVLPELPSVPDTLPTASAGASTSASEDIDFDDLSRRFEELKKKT
UniProt P78318: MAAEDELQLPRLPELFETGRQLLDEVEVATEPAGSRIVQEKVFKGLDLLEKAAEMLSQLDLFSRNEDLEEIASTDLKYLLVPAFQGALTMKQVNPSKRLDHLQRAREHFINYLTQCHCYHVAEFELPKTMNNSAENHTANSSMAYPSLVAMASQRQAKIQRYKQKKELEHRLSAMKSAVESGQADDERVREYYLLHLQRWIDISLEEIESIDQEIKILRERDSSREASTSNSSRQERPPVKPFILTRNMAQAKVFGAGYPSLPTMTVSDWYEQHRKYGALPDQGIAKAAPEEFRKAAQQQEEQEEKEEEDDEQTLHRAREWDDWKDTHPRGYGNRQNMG
UniProt Q8TB96: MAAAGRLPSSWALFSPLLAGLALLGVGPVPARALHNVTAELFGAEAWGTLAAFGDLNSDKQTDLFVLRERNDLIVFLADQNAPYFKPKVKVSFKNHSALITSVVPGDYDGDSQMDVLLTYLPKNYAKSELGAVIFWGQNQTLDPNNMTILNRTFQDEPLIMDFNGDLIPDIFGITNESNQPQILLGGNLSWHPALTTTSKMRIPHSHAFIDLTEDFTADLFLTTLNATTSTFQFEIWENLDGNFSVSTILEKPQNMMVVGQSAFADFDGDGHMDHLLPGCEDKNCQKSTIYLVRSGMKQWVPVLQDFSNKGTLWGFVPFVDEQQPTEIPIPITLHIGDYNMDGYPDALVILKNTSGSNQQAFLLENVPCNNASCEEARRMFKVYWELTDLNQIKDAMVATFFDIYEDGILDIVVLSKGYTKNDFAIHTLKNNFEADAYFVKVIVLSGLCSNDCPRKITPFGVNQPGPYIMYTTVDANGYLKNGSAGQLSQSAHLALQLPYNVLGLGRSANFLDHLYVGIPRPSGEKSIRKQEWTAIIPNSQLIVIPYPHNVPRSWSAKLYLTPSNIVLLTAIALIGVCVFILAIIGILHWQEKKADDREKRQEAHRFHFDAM
UniProt P18084: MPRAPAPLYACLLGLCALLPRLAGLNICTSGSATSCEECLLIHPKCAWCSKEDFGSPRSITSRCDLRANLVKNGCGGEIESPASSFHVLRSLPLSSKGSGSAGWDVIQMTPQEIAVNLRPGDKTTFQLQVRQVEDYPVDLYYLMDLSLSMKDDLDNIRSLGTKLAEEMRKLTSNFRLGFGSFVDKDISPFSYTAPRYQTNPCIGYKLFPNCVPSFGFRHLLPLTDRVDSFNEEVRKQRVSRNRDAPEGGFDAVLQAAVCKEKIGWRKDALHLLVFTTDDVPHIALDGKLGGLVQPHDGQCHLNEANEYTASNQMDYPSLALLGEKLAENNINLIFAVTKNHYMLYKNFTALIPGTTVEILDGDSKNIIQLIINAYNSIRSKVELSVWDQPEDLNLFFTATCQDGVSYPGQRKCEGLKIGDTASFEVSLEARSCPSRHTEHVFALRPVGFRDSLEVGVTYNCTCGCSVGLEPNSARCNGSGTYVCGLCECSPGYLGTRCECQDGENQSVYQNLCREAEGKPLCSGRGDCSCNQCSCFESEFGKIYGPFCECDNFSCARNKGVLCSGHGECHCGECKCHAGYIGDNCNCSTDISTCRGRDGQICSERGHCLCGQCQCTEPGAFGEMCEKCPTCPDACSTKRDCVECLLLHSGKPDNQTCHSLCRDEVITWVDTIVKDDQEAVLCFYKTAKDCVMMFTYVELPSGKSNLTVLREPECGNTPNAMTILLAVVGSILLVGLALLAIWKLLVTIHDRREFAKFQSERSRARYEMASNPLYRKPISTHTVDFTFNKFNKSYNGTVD
UniProt O00425, whole entry, looked up: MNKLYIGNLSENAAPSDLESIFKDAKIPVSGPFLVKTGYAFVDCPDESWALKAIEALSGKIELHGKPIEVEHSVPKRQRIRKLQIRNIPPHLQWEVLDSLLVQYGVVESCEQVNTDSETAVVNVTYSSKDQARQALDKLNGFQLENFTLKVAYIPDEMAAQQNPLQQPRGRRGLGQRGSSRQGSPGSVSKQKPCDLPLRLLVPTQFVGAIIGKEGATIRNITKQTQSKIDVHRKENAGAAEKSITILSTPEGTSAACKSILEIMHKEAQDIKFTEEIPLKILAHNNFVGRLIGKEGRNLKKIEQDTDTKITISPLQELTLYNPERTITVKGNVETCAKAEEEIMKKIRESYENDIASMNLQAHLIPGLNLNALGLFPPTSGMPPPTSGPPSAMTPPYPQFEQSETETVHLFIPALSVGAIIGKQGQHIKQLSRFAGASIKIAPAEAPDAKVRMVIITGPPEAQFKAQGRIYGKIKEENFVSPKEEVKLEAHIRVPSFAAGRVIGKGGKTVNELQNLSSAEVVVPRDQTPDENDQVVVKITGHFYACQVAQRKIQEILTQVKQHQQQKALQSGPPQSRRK
UniProt P23677, whole entry, looked up: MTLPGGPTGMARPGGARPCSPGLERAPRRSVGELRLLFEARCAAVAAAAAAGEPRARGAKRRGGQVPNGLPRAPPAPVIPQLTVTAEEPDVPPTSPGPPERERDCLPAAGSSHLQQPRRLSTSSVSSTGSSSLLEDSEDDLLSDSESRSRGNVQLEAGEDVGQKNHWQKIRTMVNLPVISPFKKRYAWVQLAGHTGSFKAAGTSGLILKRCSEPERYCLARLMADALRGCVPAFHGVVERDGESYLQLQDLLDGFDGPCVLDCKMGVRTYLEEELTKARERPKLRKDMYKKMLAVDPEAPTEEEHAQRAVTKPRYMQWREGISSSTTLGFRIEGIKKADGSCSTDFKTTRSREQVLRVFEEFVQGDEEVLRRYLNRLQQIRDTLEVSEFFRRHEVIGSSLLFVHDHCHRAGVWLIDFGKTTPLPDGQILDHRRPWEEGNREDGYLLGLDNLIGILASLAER
UniProt P80217: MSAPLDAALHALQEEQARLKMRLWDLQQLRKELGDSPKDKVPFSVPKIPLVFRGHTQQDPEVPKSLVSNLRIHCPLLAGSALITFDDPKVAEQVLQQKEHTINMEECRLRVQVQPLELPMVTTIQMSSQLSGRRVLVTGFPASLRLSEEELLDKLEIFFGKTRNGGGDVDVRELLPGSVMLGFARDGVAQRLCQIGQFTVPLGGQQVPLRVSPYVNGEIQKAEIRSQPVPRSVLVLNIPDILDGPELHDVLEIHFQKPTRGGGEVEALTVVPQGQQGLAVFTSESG
UniProt Q9Y6K9, whole entry, looked up: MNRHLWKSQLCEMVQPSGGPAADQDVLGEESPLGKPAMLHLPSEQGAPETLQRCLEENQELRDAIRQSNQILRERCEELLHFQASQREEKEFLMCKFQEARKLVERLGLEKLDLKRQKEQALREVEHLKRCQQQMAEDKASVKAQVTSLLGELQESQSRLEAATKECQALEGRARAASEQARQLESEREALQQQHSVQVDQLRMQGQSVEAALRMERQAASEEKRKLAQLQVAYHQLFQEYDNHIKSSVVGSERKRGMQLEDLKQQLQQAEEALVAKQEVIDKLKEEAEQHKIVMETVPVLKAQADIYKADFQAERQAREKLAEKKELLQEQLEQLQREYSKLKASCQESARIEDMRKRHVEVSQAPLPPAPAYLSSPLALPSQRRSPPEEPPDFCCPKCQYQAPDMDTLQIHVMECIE

What was measured:
Assay in all cases: log2 fold change, soluble protein after heating vs DMSO (PISA); higher = thermal stabilisation; K562 cells, 10 uM, 30 min; active = over 0.2 and 3.5 SD of the protein, either way, in both replicates (recomputed)
[1] = compound: C#Cc1cccc(Nc2ncnc3cc(OCCOC)c(OCCOC)cc23)c1 [erlotinib]
How it was run: (§1)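 Quantification of soluble protein used TMTpro 16plex LC-MS/MS, with channel sums equalised. Samples were the supernatant after 21,000xg for 90 min of pooled aliquots from K562 cells (2×10^6 cells/mL) treated with 10 μM compound for 30 min, heated for 3 min over 48°C-58°C, and extracted in PBS with 0.5% NP-40 at 4°C. Values, from duplicates, describe thermal stability against control samples on a log2 fold-change scale.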

[2] = compound: C/C(=N\NC(=O)C1=CC(=CC=C1)S(=O)(=O)N2CCOCC2)/C3=C(C=CC(=C3)Cl)O
How it was run: as §1

[3] = compound: C1=CC(=C(C=C1Cl)C2=NC3=NC=CN=C3C(=N2)NC4=CC=NC=C4)F
How it was run: as §1

[4] = compound: C1=CC(=CC=C1C2=NC3=C(N2)C=C(C=C3)C(=O)N)OC4=CC=C(C=C4)Cl
How it was run: as §1

[5] = compound: C1=CC2=C(C=CC(=C2)/C=C\3/C(=O)NC(=NCC4=CC=CS4)S3)N=C1
How it was run: as §1

[6] = compound: C1=CC2=NC=CN=C2C=C1/C=C/3\C(=O)NC(=O)S3
How it was run: as §1

[7] = compound: C1=CC=C(C=C1)C2=NC(=C(N2)C3=CC=NC=C3)C4=CC(=C(C=C4)Cl)O
How it was run: as §1

[8] = compound: C1=CC=C2C(=C1)C3=NNC4=CC=CC(=C43)C2=O
How it was run: as §1

[9] = compound: C1CCN(C1)C(=O)NC2=CC=CC(=C2)NC3=NC=C(C(=N3)NCCC4=CN=CN4)Br
How it was run: as §1

[10] = compound: C1CN(CCC1(CC2=CC=C(C=C2)Cl)N)C3=NC=NC4=C3C=CN4
How it was run: as §1

[11] = compound: C1COCCN1CCN2C3=CC=CC=C3N=C2NC(=O)C4=CC(=CC=C4)[N+](=O)[O-] [IRAK-1-4 Inhibitor I]
How it was run: as §1

[12] = compound: C=CC(=O)N1CCC[C@@H](n2nc(-c3ccc(Oc4ccccc4)cc3)c3c(N)ncnc32)C1 [ibrutinib]
How it was run: as §1

[13] = compound: CC(=O)c1cnc2ccc(-c3cc(Cl)c(O)c(Cl)c3)nc2c1N[C@H]1CC[C@H](CN(C)C)CC1
How it was run: as §1

[14] = compound: CC(C)(C)Cn1c(N)nc2ccc(-c3[nH]c(C(C)(C)C)nc3-c3ccc(F)cc3)nc21 [ralimetinib]
How it was run: as §1

[15] = compound: CC(C)(O)CC(=O)NCCn1ccc2ncnc(Nc3ccc(Oc4cccc(C(F)(F)F)c4)c(Cl)c3)c21
How it was run: as §1

[16] = compound: CC(C)C1=C2N=C(C=C(N2N=C1)NCC3=CC=CC=C3)NCCCCCCN
How it was run: as §1

[17] = compound: CC(C)C[C@@H](C=O)NC(=O)[C@H](CC(C)C)NC(=O)[C@H](CC(C)C)NC(=O)OCc1ccccc1
How it was run: as §1

[18] = compound: CC(C)N(C[C@H]1O[C@@H](n2cnc3c(N)ncnc32)[C@H](O)[C@@H]1O)[C@H]1C[C@@H](CCc2nc3cc(C(C)(C)C)ccc3[nH]2)C1 [pinometostat]
How it was run: as §1

[19] = compound: CC1=C(C(CC(=O)N1)C2=CC=C(C=C2)C(F)(F)F)C(=O)NC3=C(C=C4C(=C3)C=NN4)F
How it was run: as §1

[20] = compound: CC1=C(C2=C(C=C1)C(=O)C3=CC=CC=C3N2CCCN)C
How it was run: as §1

Measured: log2 fold change

ISG15 (UniProt P05161)
inactive: [1] 0.046 | [2] -0.036 | [3] 0.093 | [4] -0.005 | [5] 0.126 | [6] 0.049 | [7] 0.074 | [8] -0.075 | [9] -0.07 | [10] 0.055 | [11] 0.02 | [12] -0.048 | [13] -0.028 | [14] 0.003 | [15] -0.15 | [16] -0.025 | [17] -0.039 | [18] 0.156 | [19] -0.059 | [20] 0

INTS14 (UniProt Q96SY0)
inactive: [1] 0.077 | [2] 0.071 | [3] 0.037 | [4] 0.057 | [5] 0.021 | [6] 0.029 | [7] 0.07 | [8] -0.022 | [9] -0.023 | [10] -0.009 | [11] 0.005 | [12] 0.016 | [13] -0.069 | [14] -0.047 | [15] -0.082 | [16] -0.124 | [17] -0.01 | [18] -0.01 | [19] 0 | [20] 0.016

IPO5 isoform 3 (UniProt O00410)
inactive: [1] -0.014 | [2] 0.109 | [3] 0.043 | [4] 0.038 | [5] -0.001 | [6] 0.064 | [7] 0.06 | [8] 0.03 | [9] -0.038 | [10] -0.015 | [11] 0.038 | [12] -0.026 | [13] 0.023 | [14] 0.014 | [15] -0.137 | [16] -0.177 | [17] -0.056 | [18] -0.015 | [19] 0.037 | [20] 0.055

IGSF3 (UniProt O75054)
inactive: [1] 0.026 | [2] 0.004 | [3] 0 | [4] 0.039 | [5] -0.028 | [6] 0.006 | [7] -0.003 | [8] -0.123 | [9] -0.019 | [10] 0.084 | [11] 0.048 | [12] 0.059 | [13] -0.035 | [14] -0.006 | [15] -0.016 | [16] 0.124 | [17] 0.073 | [18] 0.004 | [19] 0.009 | [20] 0.019

INTS3 (UniProt Q68E01)
inactive: [1] 0.024 | [2] 0.109 | [3] -0.037 | [4] -0.085 | [5] 0.187 | [6] 0.028 | [7] -0.039 | [8] 0.033 | [9] -0.023 | [10] -0.099 | [11] -0.019 | [12] 0.001 | [13] 0.187 | [14] -0.032 | [15] -0.045 | [16] -0.095 | [17] 0.107 | [18] 0.014 | [19] 0.054 | [20] 0.052

ISCU (UniProt Q9H1K1)
inactive: [1] -0.024 | [2] -0.078 | [3] 0 | [4] 0.001 | [5] 0.012 | [6] 0.009 | [7] -0.003 | [8] -0.011 | [9] 0.052 | [10] 0.041 | [11] -0.002 | [12] -0.001 | [13] -0.001 | [14] -0.071 | [15] 0.031 | [16] 0.016 | [17] -0.026 | [18] -0.023 | [19] -0.028 | [20] -0.024

IST1 isoform 5 (UniProt P53990)
inactive: [1] 0.019 | [2] 0.067 | [3] 0.081 | [4] -0.014 | [5] 0.02 | [6] 0.035 | [7] -0.053 | [8] 0.002 | [9] 0.016 | [10] -0.061 | [11] 0.017 | [12] -0.015 | [13] -0.011 | [14] 0.008 | [15] -0.118 | [16] -0.169 | [17] 0.035 | [18] 0.005 | [19] 0.103 | [20] 0.068

IGBP1 (UniProt P78318)
inactive: [1] 0.014 | [2] 0.026 | [3] 0.065 | [4] 0.003 | [5] -0.016 | [6] 0.055 | [7] 0.058 | [8] -0.01 | [9] 0.05 | [10] 0.026 | [11] 0.028 | [12] -0.051 | [13] 0 | [14] 0.059 | [15] -0.054 | [16] -0.11 | [17] -0.033 | [18] -0.029 | [19] -0.02 | [20] -0.031

INPPL1 (UniProt O15357)
inactive: [1] 0.165 | [2] 0.093 | [3] -0.165 | [4] -0.076 | [5] 0.064 | [6] 0.148 | [7] 0.063 | [8] -0.053 | [9] 0.056 | [10] -0.037 | [11] -0.037 | [12] -0.064 | [13] -0.213 | [14] -0.002 | [15] 0.012 | [16] -0.162 | [17] -0.008 | [18] 0.152 | [19] 0.121 | [20] -0.014

ITFG1 (UniProt Q8TB96)
inactive: [1] 0.084 | [2] -0.13 | [3] 0.001 | [4] 0.008 | [5] -0.037 | [6] 0 | [7] 0.039 | [8] 0.063 | [9] -0.052 | [10] -0.037 | [11] 0.04 | [12] 0.147 | [13] -0.017 | [14] -0.006 | [15] -0.015 | [16] -0.02 | [17] 0.06 | [18] 0.007 | [19] -0.079 | [20] -0.197

ITGB5 (UniProt P18084)
inactive: [1] -0.042 | [2] 0.014 | [3] -0.015 | [4] -0.049 | [5] 0.013 | [6] 0.086 | [7] 0 | [8] 0.007 | [9] 0.016 | [10] 0.087 | [11] 0.007 | [12] 0.033 | [13] -0.045 | [14] 0 | [15] -0.035 | [16] 0.075 | [17] -0.047 | [18] -0.029 | [19] 0.01 | [20] -0.027

IGF2BP3 (UniProt O00425)
inactive: [1] 0.011 | [2] -0.069 | [3] -0.549 | [4] 0.048 | [5] 0.023 | [6] -0.011 | [7] -0.092 | [8] 0.002 | [9] 0.069 | [10] -0.007 | [11] -0.258 | [12] 0.029 | [13] 0.016 | [14] 0.304 | [15] 0.069 | [16] -0.273 | [17] 0.216 | [18] 0.411 | [19] -0.018 | [20] -0.201

Looked up one by one from above (2):
IGF2BP3 (UniProt O00425)
inactive: [1] 0.011 | [2] -0.069 | [3] -0.549 | [4] 0.048 | [5] 0.023 | [6] -0.011 | [7] -0.092 | [8] 0.002 | [9] 0.069 | [10] -0.007 | [11] -0.258 | [12] 0.029 | [13] 0.016 | [14] 0.304 | [15] 0.069 | [16] -0.273 | [17] 0.216 | [18] 0.411 | [19] -0.018 | [20] -0.201

ITGB5 (UniProt P18084)
inactive: [1] -0.042 | [2] 0.014 | [3] -0.015 | [4] -0.049 | [5] 0.013 | [6] 0.086 | [7] 0 | [8] 0.007 | [9] 0.016 | [10] 0.087 | [11] 0.007 | [12] 0.033 | [13] -0.045 | [14] 0 | [15] -0.035 | [16] 0.075 | [17] -0.047 | [18] -0.029 | [19] 0.01 | [20] -0.027

Next part.

ITGAV (UniProt P06756)
inactive: [1] -0.005 | [2] -0.005 | [3] 0.026 | [4] 0.01 | [5] 0.024 | [6] 0 | [7] 0.014 | [8] -0.032 | [9] -0.001 | [10] 0.036 | [11] 0.057 | [12] 0.05 | [13] -0.024 | [14] -0.04 | [15] 0.02 | [16] 0.043 | [17] 0.029 | [18] 0.01 | [19] 0 | [20] 0.011

ITPKA (UniProt P23677)
inactive: [1] 0.086 | [2] 0.039 | [3] -0.191 | [4] -0.052 | [5] 0.157 | [6] -0.343 | [7] -0.075 | [8] 0.065 | [9] -0.066 | [10] -0.144 | [11] -0.154 | [12] -0.061 | [13] -0.672 | [14] 0.022 | [15] -0.222 | [16] -0.51 | [17] -0.078 | [18] -0.022 | [19] -0.182 | [20] -0.015

IFI35 isoform 2 (UniProt P80217)
inactive: [1] 0.023 | [2] 0.031 | [3] 0.059 | [4] -0.012 | [5] -0.002 | [6] 0.009 | [7] 0.047 | [8] -0.006 | [9] -0.033 | [10] 0.041 | [11] 0.032 | [12] 0.01 | [13] 0.014 | [14] -0.057 | [15] -0.038 | [16] 0.016 | [17] -0.006 | [18] -0.069 | [19] -0.023 | [20] 0.025

IKBKG isoform 2 (UniProt Q9Y6K9)
inactive: [1] 0.013 | [2] -0.031 | [3] -0.013 | [4] -0.01 | [5] 0.036 | [6] 0.003 | [7] 0.048 | [8] -0.008 | [9] 0.028 | [10] -0.044 | [11] 0 | [12] -0.052 | [13] -0.05 | [14] 0.02 | [15] 0.052 | [16] 0.066 | [17] -0.029 | [18] -0.038 | [19] 0.018 | [20] -0.09
